{"source": "patent US9567625B2", "about": "“Method for detection of microorganism and kit for detection of microorganism” (MORINAGA MILK INDUSTRY CO., LTD., priority 2006, dated 2017)", "system": "hlyA gene of Listeria", "test": "PCR targeting the hlyA gene after EMA treatment and topoisomerase poison or DNA gyrase poison treatment", "type": "cell-based, Listeria monocytogenes", "details": "Listeria injured cells, poison used together with EMA treatment, 30° C. for 30 minutes", "procedure": "The live cell count of the live cell suspension was 1.3×10^8 cfu/ml\nTherefore, the time for leaving the suspension at 4° C. under light shielding after the addition of EMA was shortened to 5 minutes, and the visible light irradiation time was also shortened to 5 minutes.\nAs described above, 1 tube of 1 ml EMA-untreated live cell suspension, […] of 1 ml EMA-treated live cell suspension, 1 tube of 1 ml EMA-untreated injured cell suspension, and 7 tubes of 1 ml EMA-treated injured cell suspension were prepared.\nThe EMA-treated live cell and injured cell suspensions were divided into 6 sets, each of which consisted of 1 tube of the live cell suspension and 1 tube of injured cell suspension.\nA master mix (total volume: 50 μl) of the following composition was prepared. • Ex-Taq® (Takara Shuzo, catalog number: RR001B; TaKaRa Ex Taq enzyme): 0.25 μl • 10× Ex-Taq® Buffer (Takara Shuzo, catalog number: RR001B): 5 μl • dNTP mixture (Takara Shuzo, catalog number: RR001B): 4 μl • 5 pmol/μl SEQ ID NO: 7 (hlyA-F) DNA: 2.5 μl • 5 pmol/μl SEQ ID NO: 8 (hlyA-R) DNA: 2.5 μl • 2×SYBR® Green (cyanine dye) (BMA, catalog number: 50513): 10 μl • Sterilized water: 15.75 μl • Template DNA (15 ng/μl): 10 μl 3-1-2) PCR Thermal Cycle Profile for Amplification of hlyA Gene […]", "note": "At least one compound was matched to its structure with a doubt left."}
{"smiles": "COc1cc(NS(C)(=O)=O)ccc1Nc1c2ccccc2nc2ccccc12", "note": "[amsacrine]", "values": [{"measurement": "inhibition of DNA amplification", "value": "markedly inhibited"}]}
